The record followed here is article PMC5290147.

These are yes or no findings as the source states them, for the method shown. In cells and extracts the contact can be indirect. Some binding calls cover weakened binding; strength is not graded here.

The assay deals with β1 wild-type cytoplasmic tail peptide. Kind of assay: pull-down; desthiobiotinylated peptides immobilised on Dynabeads MyOne Streptavidin C1; 1 mg pKO-αV/β1 fibroblast lysate, overnight at 4 °C; western blot; only the target purified. (In western blotting, separated proteins are transferred to a membrane and probed.)

B1: kindlin-2 (protein, UniProt Q8CIB5 1-680)
chain: MALDGIRMPDGCYADGTWELSVHVTDLNRDVTLRVTGEVHIGGVMLKLVEKLDVKKDWSDHALWWEKKRTWLLKTHWTLDKCGIQADAKLQFTPQHKLLRLQLPNMKYVKVKVNFSDRVFKAVSDICKTFNIRHPEELSLLKKPRDPTKKKKKKLDDQSEDEALELEGPLIMPGSGSIYSSPGLYSKTMTPTYDAHDGSPLSPTSAWFGDSALSEGNPGILAVSQPVTSPEILAKMFKPQALLDKAKTNQGWLDSSRSLMEQDVKENEALLLRFKYYSFFDLNPKYDAIRINQLYEQAKWALLLEEIECTEEEMMMFAALQYHINKLSIMTSENHLNNSDKEVDEVDAALSDLEITLEGGKTSTILGDITSIPELADYIKVFKPKKLTLKGYKQYWCTFKDTSISCYKSREESSGTPAHQLNLRGCEVTPDVNISGQKFNIKLLIPVAEGMNEIWLRCDNEKQYAHWMAACRLASKGKTMADSSYNLEVQNILSFLKMQHLNPDPQLIPDQITTDVNPECLVSPRYLKKYKSKQITARILEAHQNVAQMSLIEAKMRFIQAWQSLPEFGITHFIARFQGGKREELIGIAYNRLIRMDASTGDAIKTWRFSNMKQWNVNWEIKMVTVEFADEVRLSFICTEVDCKVVHEFIGGYIFLSTRAKDQNESLDEEMFYKLTSGWV
Turning to B1, the binding entry is reported as “binds”.
